PMC11965403
No constants are given. Whether binding was seen depends on the method and setting. Binding seen in cells or lysates may run through a third protein. Some entries that bind do so weakly or less than the wild type. Each block holds one substance with its values, some of them ahead of it.

Chains of the proteins cited; added tags and fusions are not shown.
UniProt Q86U44: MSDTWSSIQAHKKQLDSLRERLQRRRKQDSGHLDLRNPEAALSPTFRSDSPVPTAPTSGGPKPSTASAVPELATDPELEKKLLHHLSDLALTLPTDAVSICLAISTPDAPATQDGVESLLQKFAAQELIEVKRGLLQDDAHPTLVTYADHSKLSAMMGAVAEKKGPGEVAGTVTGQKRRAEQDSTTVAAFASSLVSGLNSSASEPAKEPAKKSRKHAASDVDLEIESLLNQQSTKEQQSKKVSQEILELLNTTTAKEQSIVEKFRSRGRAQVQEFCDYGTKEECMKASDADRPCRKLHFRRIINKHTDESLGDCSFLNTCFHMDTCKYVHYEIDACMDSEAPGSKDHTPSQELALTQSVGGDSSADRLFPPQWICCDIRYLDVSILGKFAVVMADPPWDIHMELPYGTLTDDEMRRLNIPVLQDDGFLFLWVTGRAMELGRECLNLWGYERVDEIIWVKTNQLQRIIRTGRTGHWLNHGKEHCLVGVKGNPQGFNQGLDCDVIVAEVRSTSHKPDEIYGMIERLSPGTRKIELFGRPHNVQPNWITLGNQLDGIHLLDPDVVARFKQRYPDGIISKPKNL
UniProt P19474: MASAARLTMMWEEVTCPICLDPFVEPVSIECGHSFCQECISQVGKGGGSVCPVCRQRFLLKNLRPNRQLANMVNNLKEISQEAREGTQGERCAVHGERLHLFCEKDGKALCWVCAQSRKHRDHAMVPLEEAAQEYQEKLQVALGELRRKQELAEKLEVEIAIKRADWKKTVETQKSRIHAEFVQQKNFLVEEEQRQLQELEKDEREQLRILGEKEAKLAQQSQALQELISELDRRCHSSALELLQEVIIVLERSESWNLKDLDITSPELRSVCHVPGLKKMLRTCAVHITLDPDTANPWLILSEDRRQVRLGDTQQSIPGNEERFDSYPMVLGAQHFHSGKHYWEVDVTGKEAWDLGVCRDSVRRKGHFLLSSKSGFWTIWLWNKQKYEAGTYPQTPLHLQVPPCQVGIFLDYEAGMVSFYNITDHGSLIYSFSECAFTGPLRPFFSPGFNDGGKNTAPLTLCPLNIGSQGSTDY

Legend:
[1] = molecular target: Flag-tagged METTL3 (Methyltransferase like 3) (human) (UniProt Q86U44); assay: co-IP; Flag-METTL3 and His-TRIM21 expressed together in MIA PaCa-2 cells; IP with anti-Flag antibody; NP40 lysis buffer
[2] = molecular target: His-tagged TRIM21 (human) (UniProt P19474); assay: co-IP; His-tagged TRIM21 transfected into pancreatic cancer cells; METTL3 detected in the precipitate of His-TRIM21; NP40 lysis buffer
[3] = molecular target: endogenous TRIM21 (human (endogenous in AsPC-1 and MIA PaCa-2)) (UniProt P19474); assay: co-IP; endogenous proteins in human pancreatic cancer cells; IP with anti-METTL3 antibody or with anti-TRIM21 antibody; NP40 lysis buffer
[4] = molecular target: endogenous METTL3 (human (endogenous in pancreatic cancer cells)) (UniProt Q86U44); assay: as above
[5] = molecular target: Flag-tagged METTL3 (Methyltransferase like 3) (human) (UniProt Q86U44); assay: co-IP; Flag-METTL3 transfected into AsPC-1 and MIA PaCa-2 cells for 48 h; IP with anti-Flag antibody, blot with anti-TRIM21 antibody; NP40 lysis buffer

binding [1]: binds
Substance: His-tagged TRIM21 (from UniProt P19474 1-475) (enzyme)

binding [2]: binds | binding [3]: binds
Substance: endogenous METTL3 (from UniProt Q86U44 1-580)

binding [4]: binds | binding [5]: binds
Substance: endogenous TRIM21 (from UniProt P19474 1-475)
